Data taken from article PMC4348373.
For at least one entry, the source does not settle the construct or the ends of the probe. Where cells or extracts were used, other partners may take part. At least one verdict rests on a figure or table, not on a statement of the authors.

The chains behind the UniProt entries cited, without tags or fusion partners.
UniProt P25490, whole entry: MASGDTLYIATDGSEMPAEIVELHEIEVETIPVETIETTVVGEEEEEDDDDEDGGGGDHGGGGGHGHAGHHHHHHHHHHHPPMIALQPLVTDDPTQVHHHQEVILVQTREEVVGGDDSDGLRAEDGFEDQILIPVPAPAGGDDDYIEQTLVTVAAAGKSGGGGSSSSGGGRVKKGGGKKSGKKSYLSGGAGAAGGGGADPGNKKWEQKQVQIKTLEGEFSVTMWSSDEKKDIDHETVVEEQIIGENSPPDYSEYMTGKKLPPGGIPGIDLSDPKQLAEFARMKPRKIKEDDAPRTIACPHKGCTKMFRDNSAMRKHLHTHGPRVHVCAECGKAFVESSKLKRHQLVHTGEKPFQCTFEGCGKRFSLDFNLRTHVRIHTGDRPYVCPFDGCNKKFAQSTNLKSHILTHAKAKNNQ

Biological target: YY1 (HeLa nuclear extract) (human (HeLa)) (UniProt P25490)
Assay: pull-down + MS
Conditions: Pull-down: 25 mM Tris, 150 mM NaCl, pH 7.2, room temperature, 30 min, protein in an extract, label: 5'-biotin

CGTCTGGAACTCCCCTCAACGCTCTCACCATTTTGCCCCGCGAAGGCTAATCCGCCGCT (double strand) [Probe P (Probe b)]
binding result: binds
